PubChem BioAssay AID1671190 (National Center for Advancing Translational Sciences (NCATS), 2021)
Out of some 580,000 compounds screened, about 6,100 (1.1%) were called active. The inconclusive results got no clear call from the source; some entries with a clear call stand among them for comparison. Calls follow the shape of the dose curve; as a rule, active = well fitted inhibition curve with a large enough effect; inconclusive = small, poorly fitted or top-dose-only effect, or another doubt; inactive = no such curve, though single readings can be large or run the other way. A potency beside an inconclusive call is a rough fit, not a confirmed value.

Protein sequences, listed by entry. Tags and fused reporters are not part of them. Lines headed by an entry give the natural chain unless they say otherwise; changes in a name come on top.
UniProt P18054: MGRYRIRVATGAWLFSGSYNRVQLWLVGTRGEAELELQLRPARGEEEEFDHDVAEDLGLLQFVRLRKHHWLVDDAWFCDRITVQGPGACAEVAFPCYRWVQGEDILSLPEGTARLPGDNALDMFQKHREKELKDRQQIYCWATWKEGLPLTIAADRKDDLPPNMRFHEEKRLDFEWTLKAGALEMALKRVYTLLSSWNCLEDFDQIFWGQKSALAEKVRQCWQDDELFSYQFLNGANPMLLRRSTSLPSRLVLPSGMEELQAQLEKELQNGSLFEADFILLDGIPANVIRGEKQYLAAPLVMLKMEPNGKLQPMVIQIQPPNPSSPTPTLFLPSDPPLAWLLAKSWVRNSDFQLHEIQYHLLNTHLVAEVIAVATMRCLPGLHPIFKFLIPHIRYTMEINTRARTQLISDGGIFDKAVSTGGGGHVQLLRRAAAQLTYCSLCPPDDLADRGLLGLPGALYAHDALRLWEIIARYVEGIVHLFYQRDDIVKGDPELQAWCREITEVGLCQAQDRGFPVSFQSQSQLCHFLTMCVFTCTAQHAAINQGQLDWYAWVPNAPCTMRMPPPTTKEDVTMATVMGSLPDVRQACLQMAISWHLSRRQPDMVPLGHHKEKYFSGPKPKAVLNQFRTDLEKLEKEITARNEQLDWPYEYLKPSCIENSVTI

Biological target: Polyunsaturated fatty acid lipoxygenase ALOX12 (Homo sapiens) (UniProt P18054)
Test: Primary qHTS assay for inhibitors of human arachidonate 12S-lipoxygenase (ALOX12): Round 2
Details: purified 12hLO, xylenol orange hydroperoxide absorbance; series mostly up to 108 µM
Summary of the method: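 Purified human 12hLO at 150 nM in 25 mM Hepes, 0.01% Triton X-100, pH 7.0, preincubated 15 min at room temperature with compound. Reaction started with 40 uM arachidonic acid, 30 min at room temperature. Hydroperoxide measured by Fe-xylenol orange, 573/405 nm absorbance ratio.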
Potency is read from the fitted curve at half-maximal effect.

| SMILES | Potency |
| --- | --- |
| Cc1ccccc1N/C(=C(/C(Cl)=C(Cl)Cl)[N+](=O)[O-])n1nnc2ccccc21 | inconclusive: 25.1 µM [inhibitor, partial curve, poor fit] |
| Cc1onc(-c2ccccc2)c1C(=O)N1CCCC2(CCOC2)C1 (stereo unspecified) | inactive |
| Cc1ccc(S(=O)(=O)Nc2c(C)nc3nc(C)[nH]n3c2=O)cc1 | inactive |
| Nc1c(C(=O)O)sc2nc(-c3ccc(F)cc3)cc(-c3ccccc3)c12 | inactive |
| CCNc1nc(N)c(C(=O)c2ccc(Cl)cc2)s1 | inactive |
| CCSc1nnc(-c2ccc(Cl)cc2)c2ccccc12 | inconclusive: 112 µM [inhibitor, partial curve, poor fit] |
| NC(Cc1ccc(Cl)cc1)c1csc(NC(=O)NCCc2ccccc2)n1 (stereo unspecified) | inconclusive: 70.8 µM [inhibitor, partial curve, poor fit] |
| CC[C@@]12C(=O)N(c3cccc(Cl)c3)C(=O)N1[C@H](c1ccc(Br)cc1)[C@@H]1C(=O)N(C(C)(C)C)C(=O)[C@@H]12 | inconclusive: 126 µM [inhibitor, single point] |
| CCc1ccc2oc(=O)cc(CN3CCN(c4ccc(F)cc4)CC3)c2c1 | inconclusive: 89.1 µM [inhibitor, single point] |
| O=C1NC(Cc2ccccc2)c2nc3ccc(Br)cc3c(=O)n2-c2cc3ccccc3cc21 (stereo unspecified) | inconclusive: 100 µM [inhibitor, single point] |
| NC(=O)NC(=O)COC(=O)c1cc(-c2ccco2)nc2ccccc12 | active: 14.1 µM |
| O=C(COC(=O)CCC(=O)c1ccc(Cl)cc1)NCc1ccco1 | inconclusive: 70.8 µM [inhibitor, partial curve, poor fit] |
| CN(C(=O)CC1C(=O)NCCN1Cc1c(F)cccc1Cl)C1CCOCC1 (stereo unspecified) | inactive |
| CCCCn1c(=NC(=O)c2ccc3c(c2)OCO3)c(C#N)cc2c(=O)n3cccc(C)c3nc21 | inconclusive: 1.12 µM [inhibitor, full curve, poor fit] |
| Clc1ccc(-c2nnnn2-c2ccc(Cl)cc2)cc1 | inconclusive: 126 µM [inhibitor, single point] |
| COc1ccccc1C(=O)NCCn1cc(SCC(=O)Nc2nnc(C)s2)c2ccccc21 | inconclusive: 44.7 µM [inhibitor, partial curve, poor fit] |
| COc1ncc2nc(-c3cn(C)c4ccccc34)c(=O)n(CCC#N)c2n1 | inconclusive: 44.7 µM [inhibitor, partial curve, poor fit] |
| CCC(C)(C)n1nnnc1C(c1ccc(OC)c(OC)c1)N1CCN(C(=O)c2ccco2)CC1 (stereo unspecified) | inconclusive: 44.7 µM [inhibitor, partial curve, poor fit] |
| CCCN(Cc1ccc(F)cc1)Cc1cc(=O)n2c3c(sc2n1)CCCC3 | inconclusive: 35.5 µM [inhibitor, partial curve, poor fit] |
| C=CCc1cc(OC)ccc1OCCN1CC(C)OC(C)C1 (stereo unspecified) | inconclusive: 0.355 µM [inhibitor, full curve, poor fit] |
| OC(COc1ccc2c(c1)OCO2)CN1CCc2ccccc2C1 (stereo unspecified) | inconclusive: 79.4 µM [inhibitor, partial curve, poor fit] |
| O=C(CCc1nc2ccccc2s1)NCc1cccc(C(F)(F)F)c1 | inconclusive: 0.631 µM [inhibitor, full curve, poor fit] |

As entered above.
For Potency, NC(Cc1ccc(Cl)cc1)c1csc(NC(=O)NCCc2ccccc2)n1 (stereo unspecified) is listed with inconclusive: 70.8 µM [inhibitor, partial curve, poor fit]
For Potency, Clc1ccc(-c2nnnn2-c2ccc(Cl)cc2)cc1 is listed with inconclusive: 126 µM [inhibitor, single point]
For Potency, CCCCn1c(=NC(=O)c2ccc3c(c2)OCO3)c(C#N)cc2c(=O)n3cccc(C)c3nc21 is listed with inconclusive: 1.12 µM [inhibitor, full curve, poor fit]

Following part

| SMILES | Potency |
| --- | --- |
| Cc1sc2nc(SCc3ccc(F)cc3)n(CCCN3CCOCC3)c(=O)c2c1C | inconclusive: 100 µM [inhibitor, single point] |
| Cc1cc(=O)n2nc(N3CCCC3C(=O)Nc3ccccc3C)sc2n1 (stereo unspecified) | inactive |
| CCC(C)n1c(-c2cccc(S(=O)(=O)N(CC)CC)c2)n[nH]c1=S (stereo unspecified) | inconclusive: 89.1 µM [inhibitor, partial curve, poor fit] |
| COC(=O)c1sc(=S)n(-c2cc(C)cc(C)c2)c1N | inconclusive: 12.6 µM [inhibitor, full curve] |
| Cc1ccc(C(=O)N[C@@H](C)CN2C3=NC[C@H](C(C)C)N3C[C@H]2Cc2ccc(O)cc2)cc1Br | inconclusive: 44.7 µM [inhibitor, partial curve, poor fit] |
| COc1ccccc1NC(=S)NN=C(C)c1ccccn1 | inconclusive: 63.1 µM [inhibitor, partial curve, poor fit] |
| COc1cc(S(=O)(=O)N2CCN(C(=O)c3ccco3)CC2)c(OC)cc1C | inactive |
| CC(=O)N1CCc2nn(CC(=O)Nc3cccc(F)c3)c(=O)cc2C1 | inactive |
| COc1ccc(Br)cc1Cn1nnc(C(=O)Nc2ccc(C)cc2C)c1N | inactive |
| CC(=O)COc1ccc2cc(-c3ccccc3)c(=O)oc2c1 | inconclusive: 44.7 µM [inhibitor, partial curve, poor fit] |
| O=C(O)C(c1c[nH]c2ccc(OCc3ccccc3)cc12)N1CCN(CC(=O)N2CCOCC2)CC1 (stereo unspecified) | inconclusive: 56.2 µM [inhibitor, partial curve, poor fit] |
| O=C(NNS(=O)(=O)c1ccccc1)c1ccc(F)cc1 | inconclusive: 3.16 µM [inhibitor, full curve, poor fit] |
| COc1cc(Cl)c(C)cc1NC(=O)C(C)N1CCN(S(=O)(=O)Cc2ccccc2)CC1 (stereo unspecified) | inactive |
| Cc1cccn2c(=O)c3cc(C(=O)N4CCN(c5ccccc5)CC4)sc3nc12 | inconclusive: 126 µM [inhibitor, single point] |
| O=C(c1ccc2[nH]ccc2c1)N1CCC(n2cc(-c3nc(-c4ccccc4)no3)nn2)C1 (stereo unspecified) | inconclusive: 17.8 µM [inhibitor, full curve] |
| COCCNS(=O)(=O)c1ccc2c3c(cccc13)C(=O)N2C | inactive |
| Cc1nc(Nc2ccc(Cl)c(Cl)c2)sc1C(=O)Nc1ccccc1 | inconclusive: 35.5 µM [inhibitor, partial curve] |
| CCc1ccc(NC(=O)C[n+]2cc(-c3ccc(C)cc3)n3c2CCC3)cc1 | inconclusive: 100 µM [inhibitor, single point] |
| O=C1C(Sc2ccccc2)=C[C@@]2(O)CC[C@@H](O)[C@]1(Sc1ccccc1)[C@H]2O | inconclusive: 44.7 µM [inhibitor, partial curve, poor fit] |
| Cc1nn(C(=O)c2ccccc2)c2c1C(=O)CC(C)(C)C2 | inconclusive: 79.4 µM [inhibitor, partial curve, poor fit] |
| O=C(C1=COCCO1)N1CCN(S(=O)(=O)c2cccc(Cl)c2Cl)CC1 | inconclusive: 50.1 µM [inhibitor, partial curve, poor fit] |
| Cc1ccc(C)n1NC(=O)c1ccccc1Cl | active: 44.7 µM |

| SMILES | Potency |
| --- | --- |
| COC(=O)C1=C(C)N(c2cc(C)ccc2C)C(=S)NC1c1ccsc1 (stereo unspecified) | inconclusive: 44.7 µM [inhibitor, partial curve, poor fit] |
| C/C=C/C=C/C(=O)OCC(=O)c1ccc2c(c1)OCO2 | inactive |
| CC1(C)OC(=O)C(=CNNc2c(Cl)cc(Cl)cc2Cl)C(=O)O1 | inconclusive: 25.1 µM [inhibitor, partial curve, poor fit] |
| Cc1cc(C(=O)Nc2ccccc2C#N)cs1 | inactive |
| CN(Cc1csc(-c2ccccc2)n1)C(=O)CC1COCCN1 (stereo unspecified) | inconclusive: 28.2 µM [inhibitor, full curve] |
| Clc1cccc(CNCCN2CCCC2)c1Cl | inconclusive: 6.31 µM [inhibitor, partial curve, poor fit] |
| O=C1Nc2ccccc2C(=O)N2c3ccccc3NC(=O)C12 (stereo unspecified) | inconclusive: 17.8 µM [inhibitor, full curve] |
| O=[N+]([O-])c1ccc(Nc2nccc(Cl)n2)cc1 | inconclusive: 112 µM [inhibitor, single point] |
| CC(C)C(=O)NC(=S)Nc1cccc(Cl)c1 | inconclusive: 22.4 µM [inhibitor, partial curve, poor fit] |
| Cc1noc(C)c1CC(=O)NCCc1noc(-c2ccccc2)n1 | inactive |
| CCN(CC)CC#CC(OC)(c1ccccc1)C1CCCC1 (stereo unspecified) | inconclusive: 79.4 µM [inhibitor, single point] |
| Fc1ccc(-c2csc(/C=C/c3cccc(OCc4ccccc4)c3)n2)cc1 | inconclusive: 89.1 µM [inhibitor, single point] |
| O=C(/C=C/c1ccccc1)C1=C(O)C(=O)N(CCO)C1c1ccc2c(c1)OCO2 (stereo unspecified) | active: 7.94 µM |
| CSCC[C@H](NC(=O)COc1cc2c(c3oc(=O)c(C)c(C)c13)CCC(C)(C)O2)C(=O)O | inactive |
| Cn1cccc1CNC(=S)Nc1ccccc1Cl | inactive |
| CC(C)Sc1nnc([C@H](Cc2ccccc2)NC(=O)OC(C)(C)C)o1 | inconclusive: 126 µM [inhibitor, single point] |
| CCOC(=O)c1[nH]cnc1C(=O)O | inconclusive: 2 µM [inhibitor, full curve, poor fit] |
| Cc1ccc2nc(-c3ccc(NC(=O)COC(=O)c4ccco4)cc3)sc2c1 | inactive |
| CCC(=O)N1CCc2cc(CNS(=O)(=O)c3c(C)cc(C)cc3C)ccc21 | inconclusive: 100 µM [inhibitor, partial curve, poor fit] |
| Cc1ccc(Cn2nnc3sc4c(c3c2=O)CCC(C)C4)cc1 (stereo unspecified) | inactive |
| CC(Nc1nc(-c2ccc(Cl)cc2)cs1)c1nc2cc(Cl)c(N3CCCCC3)cc2n1CCOCCO (stereo unspecified) | inconclusive: 35.5 µM [inhibitor, partial curve] |
| COC(=O)C1CN(Cc2ccc(Cl)cc2)CCS(=O)(=O)N1Cc1cn(Cc2ccc(Cl)cc2)nn1 (stereo unspecified) | inconclusive: 22.4 µM [inhibitor, partial curve, poor fit] |
